Reference: publication PMC10163288
Numbering of substitutions follows the chain as printed. The list shows a part of the results.

B1: il10ra_site1_sap_31_mot_HHH_b1_06914_000000280_0001_1_18_H_._HHH_b2_04165_af2_0001_0000200004_0000001_0_0001 (protein)
chain: SSSSDEEKKRLLHLAWRLIRRYIEEGDPELREELEELLEEAREHGNQVVVKIIEFFLERFSSSSS
B2: il10ra_site1_normal_mot_HHH_b1_02004_000000220_0001_1_19_H_._HHH_b1_04324_af2_0001_0000400012_0000002_0 (protein)
chain: SSSSDEEFEEFKRLVEKVAELLEEGDEEEAEELIRRLEELAEERNTPALKWSVRLLKRVLSSSSS
B3: il10ra_site1_normal_mot_HHH_b1_01821_000000158_0001_23_39_H_._HHH_b2_04081_0001_0000200009_0000001_0 (protein)
chain: SSSSDVEERIEELIERAEELVEEGNPKEASRLLLEAVQLAYEIQDPELLQEIWEVFRKLFSSSSS
B4: il10ra_site1_sap_18_mot_HHH_b2_05984_000000071_0001_38_52_H_._HHH_b2_05995_0001_0000400025_0000001_0_0001 (protein)
chain: SSSSTEAARELYRLMREAVELDSEGNPEEARKVAEEAEELAEEAGNRVLLYTIRNLLKLINSSSS
B5: il10ra_site1_normal_mot_8756ee2cf497b5429c717dfc0c0bcfd6_0001_000000186_0001_1_13_H_._HHH_b1_06364_0001_0000400027_0000002_0_af2pred_0001 (protein)
chain: SSSSTVEEIYRLIRRVAELLHEGNPEEAREVLKEAKELAEEAGSLVLRAQLEYLEEIAEQLSSSS
B6: il10ra_site1_sap_16_mot_HHH_b2_06497_000000202_0001_1_20_H_._HHH_b2_00195_0001_0000400029_0000001_0_0001 (protein)
chain: SSSSSDEEEEEVEELLQEAERIEDPRERIEVLLRAVQIALHLGNPELLRKIWEVFRKLVSSSSSS
B7: il10ra_site1_sap_11_mot_HHH_b2_03328_af2_000000127_0001_1_19_H_._HHH_b2_01985_0001_0000500027_0000001_0_0001 (protein)
chain: SSSSNEEARELFELIEELVQLVRNGDEERFEELLREVKELAEEANNEAFLWVVEWLEKLLTSSSS
B8: il10ra_site1_sap_20_mot_HHH_b2_05454_000000273_0001_1_18_H_._HHH_b2_02369_0001_0000400025_0000002_0_0001 (protein)
chain: SDLSEVEEILRKIREIAEERGNESVQRSVEWLERVLEHAKERNDEELERAVEIYARFLLALVENS
B9: il10ra_site1_normal_mot_HHH_b2_05343_000000235_0001_19_35_H_._HHH_b2_03338_0001_0000100008_0000001_0 (protein)
chain: SSSSDEDEEEVQRLLEEAKESDDVQEVFELLKKAIEVAAETRNQELFRLIMEVIREILENSSSSS
B10: il10ra_site1_sap_20_mot_HHH_b2_02927_000000097_0001_42_56_H_._HHH_eva_0506_af2_0001_0000200006_0000002_0_0001 (protein)
chain: SSSSDEAYEIARRAIEEAKELWEEGNPEEVKRILEEAIELLEELNTVAAVFSLRHLLEALSSSSS
B11: il10ra_site1_sap_13_mot_HHH_b2_01729_af2_000000109_0001_43_56_H_._ems_3hC_807_af2_0001_0000900023_0000002_0_0001_af2pred_dldesign_0_af2pred (protein)
chain: SSSSDPLAELEALIDRLKAELGLSEEDRHKLRILLDYLTAAGYSKERIEELLETAARYLAESSSS
B12: il10ra_site1_normal_mot_HHH_b1_02997_000000220_0001_39_52_H_._HHH_b1_02344_0001_0000300030_0000001_0_af2pred_0001 (protein)
chain: SSSSTSHEILELLRRALELRQNGDPEEARKVAEEALELAEELNNELLERLIKFLLEQIERGSSSS
B13: il10ra_site1_normal_mot_8756ee2cf497b5429c717dfc0c0bcfd6_0001_000000186_0001_1_13_H_._HHH_b2_06464_af2_0001_0000200005_0000002_0 (protein)
chain: SSSSSEELRRLFELIRRIAELLHEGDEEEARELLEEAKELAEKLGNDVFRIQLEYLERQFSSSSS
B14: il10ra_site1_normal_mot_e1dd4851c59bc1cdde016f988f6856bd_0001_1_000000200_0001_16_31_H_._HHH_eva_0684_0001_0000100003_0000001_0 (protein)
chain: SSSSSSTEEEIREIVRELAEEFGLSEDEIRAVELAARRNGASEREIESMIRFQALARSSSSSSSS
B15: il10ra_site1_sap_18_mot_HHH_b1_05672_af2_000000246_0001_1_19_H_._9bea83002f54911cbf225d03fb4c55e1_0001_0001_0000200017_0000002_0_0001 (protein)
chain: SSSSSDIEEEVEELIEELEELLRNGDPERASRVALRALRLIYRLGDWELLRKLWEVFTSHSSSSS
B16: il10ra_site1_normal_mot_HHH_b1_07219_af2_000000236_0001_1_17_H_._HHH_b1_03359_af2_0001_0000400010_0000001_0 (protein)
chain: SSSSDEEEEELKELEQEAKKLEEEGNPEEALQVLWRAAKLAAELGDKELLERLAELLRHVFSSSS
B17: il10ra_site1_sap_18_mot_HHH_b1_04771_000000013_0001_40_56_H_._HHH_b1_08590_0001_0000200016_0000001_0_0001 (protein)
chain: B14 chain with R12E, E13R, S25D, E28F, S48A, L55R
B18: il10ra_site1_normal_mot_HHH_b2_03183_af2_000000055_0001_40_56_H_._HHH_b1_05414_af2_0001_0000400033_0000001_0 (protein)
chain: SSSDYEERIARLLAEAALALVRGDPEEAEELVEEALELAEQNNNEELKELIRALERLIKQTSSSS
B19: il10ra_site1_normal_mot_HHH_b2_01032_000000296_0001_1_18_H_._HHH_b2_04729_0001_0000100002_0000001_0 (protein)
chain: SSSSDEEQERLLELLREIFRLLLEGDEEEARRLIEEAEELAEELGDEQALRVLRDMLKALNSSSS
B20: il10ra_site1_sap_20_mot_HHH_b1_03031_af2_000000117_0001_17_33_H_._HHH_b2_03680_0001_0000500019_0000001_0_0001 (protein)
chain: SSSSSSELEELLEEIKELLENGDPEEALRLIWEAVRLAAENNDHETVRELAELLKEVYQLSSSSS
B21: il10ra_site1_normal_mot_HHH_b2_00475_000000107_0001_44_57_H_._HHH_b1_00662_0001_0000900056_0000001_0 (protein)
chain: SSSSSIEERIVQLLLRALRLHAEGNPEEAERLIEEAEELAEELGDPELQRYIRILLHFVKSSSSS
B22: il10ra_site1_normal_mot_HHH_b2_05813_000000266_0001_1_19_H_._HHH_b1_01710_0001_0000100008_0000001_1_af2pred_dldesign_0_af2pred (protein)
chain: SSSSSLEEEAFKLAVEVYRLLQEGKPEEAREVLEKLRALAEEHNDARLARLYEALLRYLESSSSS
B23: il10ra_site1_sap_17_mot_HHH_b1_02766_af2_000000078_0001_42_56_H_._HHH_b1_00700_0001_0000100009_0000001_0_0001 (protein)
chain: SSSSSSDEVYELVKRIIELMSDGNPEEAEELLEEAKRLAEEAGNRILLWILEWLERQLSSSSSSS
B24: il10ra_site1_normal_mot_HHH_b1_06789_af2_000000041_0001_1_20_H_._HHH_b1_08340_0001_0000500027_0000001_0 (protein)
chain: SSSSTNAEFLIRQALKALERAVKLGDEEKVEFVYRIIKRLLRQLGDPELERLLEELYEELNSSSS
B25: il10ra_site1_sap_23_mot_HHH_b1_04327_000000247_0001_1_20_H_._HHH_b1_01543_0001_0000200014_0000001_0_0001_af2pred_0001 (protein)
chain: SSSSSDAERAAEILFRAAELALELGDEEFVKRTLKEMEFLARATNNPEIRELVEELQERLSSSSS
B26: il10ra_site1_normal_mot_HHH_b2_00622_af2_000000153_0001_40_57_H_._HHH_b2_01543_0001_0000500021_0000003_0 (protein)
chain: SSSSDEEYVRRALRFARALLESGNPEAARSLARQAEEVARRLGNPELEELVREVLEEIEQKSSSS
B27: il10ra_site1_normal_mot_HHH_b1_08176_000000188_0001_1_20_H_._HHH_b1_03331_af2_0001_0000100006_0000002_0 (protein)
chain: SSSSDEENQRALELSIEAFRLALRGNPEEAEELLEEAAELAERGNNEQLLRIIEELLRAQSSSSS
B28: il10ra_site1_sap_21_mot_HHH_b1_06341_af2_000000167_0001_17_35_H_._HHH_b1_05575_0001_0000100002_0000001_0_0001 (protein)
chain: SSSSDEELEELKELLEELIERNDRERFAKVLMRALRHAYQLSDPEVLRKLWELLEEFAKRLSSSS
B29: il10ra_site1_normal_mot_HHH_b1_02397_af2_000000085_0001_39_57_H_._HHH_b2_05327_0001_0000600045_0000001_0 (protein)
chain: SSSSSEEEERLEKLLEEIEEAVRRGDPELFARLVQELLRLAFRLSDQEVLQELWRLFREAASSSS
B30: il10ra_site1_normal_mot_HHH_b1_08446_000000041_0001_1_19_H_._HHH_b2_05901_0001_0000100009_0000001_0_af2pred_0001 (protein)
chain: SSSSSSEEESEKELEELKEELKHVSPEERFRLVRELIERLVREGDDELAREISRFVLRLSSSSSS
B31: il10ra_site1_normal_mot_HHH_b2_05323_000000159_0001_1_18_H_._HHH_b1_06664_0001_0000100010_0000002_0 (protein)
chain: SSSSDLLEEALELSLEAFRLALRGNPEEARKVAEEALELAEEEGDPQLFRQIEELLKALRSSSSS
B32: il10ra_site1_sap_19_mot_HHH_b2_07873_af2_000000172_0001_1_19_H_._2b3eed1bc0ad79715e02f0e0fad3abd3_0001_0001_0000400009_0000002_0_0001 (protein)
chain: SSSSSMEEIYELIREALELLARGDAEEARRVVEEAEEIARENNDRVALIQLEFLLRAIEIRSSSS
B33: il10ra_site1_sap_28_mot_HEEHE_1605_000000211_0001_40_56_H_._2012b86ae8029c2c8ab6d311e818aa61_0001_af2_0001_0000300013_0000002_0_0001 (protein)
chain: SSSSSDEEEERVEELLELLEKAKSREELARVAKEVLHLAFRLNDPELLEEVWEIFAKAASSSSSS
B34: il10ra_site1_normal_mot_HHH_b1_01821_000000158_0001_23_39_H_._HHH_b2_04081_0001_0000100006_0000001_0 (protein)
chain: SSSSDVEERIEELIERAEELAEQGNPEEASRLLQEAVQLAYRINDPELLRLIWEVFRELFSSSSS
B35: il10ra_site1_normal_mot_HHH_b2_01310_000000089_0001_41_55_H_._HHH_b1_00651_0001_0000100004_0000002_0_af2pred_0001 (protein)
chain: SSSSDEEEEERIQEYYERIRELAEEGNPEEALRLLRKLVRLAIKLGNQEALKLAIELAELLSSSS
B36: il10ra_site1_normal_mot_HHH_b2_07521_000000141_0001_20_37_H_._HHH_b1_05469_0001_0000200025_0000001_1_af2pred_0001 (protein)
chain: SSSSSDEEKAEAALRIAERLFELGDPEAARIILEALLKLLEEAGNEELLEKVEELLEEIESSSSS
B37: il10ra_site1_sap_26_mot_0eddeacbb14b769e73e254714f31e2f9_0001_af2_000000203_0001_37_51_H_._HHH_b1_06326_0001_0000100007_0000001_0_0001 (protein)
chain: SSSSDETQRVFELIREAAELLNEGNPEEAEKVLEEAREIAEELGNDIFRWQIEWLEKLIEQSSSS

biological target: il10ra, Q13651; experiment: yeast display titration

Apparent Kd, inactive:
B1 no binding seen, B2 no binding seen, B3 no binding seen, B4 no binding seen, B5 no binding seen, B6 no binding seen, B7 no binding seen, B8 no binding seen, B9 no binding seen, B10 no binding seen, B11 no binding seen, B12 no binding seen, B13 no binding seen, B14 no binding seen, B15 no binding seen, B16 no binding seen, B17 no binding seen, B18 no binding seen, B19 > 843 nM, B20 no binding seen, B21 no binding seen, B22 no binding seen, B23 no binding seen, B24 no binding seen, B25 no binding seen, B26 no binding seen, B27 no binding seen, B28 no binding seen, B29 > 1030 nM, B30 no binding seen, B31 no binding seen, B32 no binding seen, B33 no binding seen, B34 no binding seen, B35 no binding seen, B36 no binding seen, B37 no binding seen
